# For some assays here: No signal at the amounts used counts as a negative. For some assays here: At least one verdict rests on a figure or table, not on a statement of the authors. For some assays here: Where a protein sequence is shown, tags need not be part of it. For some assays here: Weaker means in comparison with the reference protein, sequence or condition of that experiment. For some assays here: For at least one entry, the source does not settle the construct or the ends of the probe.
# Chains of the proteins cited; added tags and fusions are not shown. Chains listed by the source or under a name are the forms on record and can include a tag or linker.
# INTS3N (human), one chain, as listed by the source: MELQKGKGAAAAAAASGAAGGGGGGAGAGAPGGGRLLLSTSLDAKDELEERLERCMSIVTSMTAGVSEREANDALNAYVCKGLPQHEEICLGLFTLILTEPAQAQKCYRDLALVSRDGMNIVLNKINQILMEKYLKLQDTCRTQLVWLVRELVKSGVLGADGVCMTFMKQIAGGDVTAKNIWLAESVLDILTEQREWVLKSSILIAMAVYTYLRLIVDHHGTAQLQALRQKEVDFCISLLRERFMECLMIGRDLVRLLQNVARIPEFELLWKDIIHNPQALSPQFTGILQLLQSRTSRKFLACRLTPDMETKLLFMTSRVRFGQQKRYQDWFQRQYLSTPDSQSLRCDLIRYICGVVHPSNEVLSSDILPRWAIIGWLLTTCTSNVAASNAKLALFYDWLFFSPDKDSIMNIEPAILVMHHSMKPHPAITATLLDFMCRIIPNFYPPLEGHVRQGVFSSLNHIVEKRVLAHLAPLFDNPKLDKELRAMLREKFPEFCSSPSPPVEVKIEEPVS
# INTS3FL (human), one chain, as listed by the source: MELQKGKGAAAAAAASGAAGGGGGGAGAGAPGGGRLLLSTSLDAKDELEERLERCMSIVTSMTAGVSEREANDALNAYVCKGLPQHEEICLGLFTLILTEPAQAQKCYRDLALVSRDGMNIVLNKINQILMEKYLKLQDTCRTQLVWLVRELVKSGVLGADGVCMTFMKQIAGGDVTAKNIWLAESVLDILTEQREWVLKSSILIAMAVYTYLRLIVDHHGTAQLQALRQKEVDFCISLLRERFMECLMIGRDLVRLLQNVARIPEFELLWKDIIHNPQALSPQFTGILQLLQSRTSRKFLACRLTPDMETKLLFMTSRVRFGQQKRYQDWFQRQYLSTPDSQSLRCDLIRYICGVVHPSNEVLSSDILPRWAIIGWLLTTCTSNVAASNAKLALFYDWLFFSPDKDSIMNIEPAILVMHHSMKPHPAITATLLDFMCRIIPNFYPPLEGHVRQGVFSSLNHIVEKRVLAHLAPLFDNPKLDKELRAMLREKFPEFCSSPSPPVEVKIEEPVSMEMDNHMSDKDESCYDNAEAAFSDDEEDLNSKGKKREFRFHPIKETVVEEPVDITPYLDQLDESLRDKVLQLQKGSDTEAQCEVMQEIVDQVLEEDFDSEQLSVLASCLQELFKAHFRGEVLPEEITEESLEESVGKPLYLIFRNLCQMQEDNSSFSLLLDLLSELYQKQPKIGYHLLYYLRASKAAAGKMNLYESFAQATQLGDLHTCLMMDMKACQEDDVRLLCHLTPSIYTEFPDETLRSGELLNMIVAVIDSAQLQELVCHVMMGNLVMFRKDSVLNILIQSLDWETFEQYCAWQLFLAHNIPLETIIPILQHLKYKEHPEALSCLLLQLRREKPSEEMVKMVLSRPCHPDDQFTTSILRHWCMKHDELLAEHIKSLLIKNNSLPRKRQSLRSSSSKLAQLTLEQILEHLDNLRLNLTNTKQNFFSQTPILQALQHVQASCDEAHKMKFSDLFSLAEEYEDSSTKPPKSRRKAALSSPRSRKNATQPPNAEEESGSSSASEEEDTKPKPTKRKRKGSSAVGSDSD
# Experiments:
# Assay in all cases: EMSA
# [1] = system: INTS3FL (human); settings: EMSA: 20 mM HEPES pH 7.3, 100 mM KCl, 1 mM MgCl2, 1 mg/ml BSA, 1 mM DTT, 6% glycerol, 0.5 nM 32P substrate, 30 min on ice; 5% native PAGE, 1x TBE, 4°C; recombinant protein; residues 1-1042; protein details: GST cleaved (PreScission); label: 5'-32P; single-stranded DNA
# [2] = target: T1, C9ORF80 (human) (UniProt Q9NRY2); settings: EMSA: 20 mM HEPES pH 7.3, 100 mM KCl, 1 mM MgCl2, 1 mg/ml BSA, 1 mM DTT, 6% glycerol, 0.5 nM 32P substrate, 30 min on ice, 5% native PAGE, 1x TBE, 4°C, recombinant protein, residues 1-104, protein details: His (pET28a), label: 5'-32P; for binding result: single-stranded DNA
# T1 sequence (looked up): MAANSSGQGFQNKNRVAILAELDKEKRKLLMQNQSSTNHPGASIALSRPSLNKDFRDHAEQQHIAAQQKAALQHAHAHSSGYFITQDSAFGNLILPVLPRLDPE
# [3] = system: INTS3N (human); settings: EMSA: 20 mM HEPES pH 7.3, 100 mM KCl, 1 mM MgCl2, 1 mg/ml BSA, 1 mM DTT, 6% glycerol, 0.5 nM 32P substrate, 30 min on ice, 5% native PAGE, 1x TBE, 4°C, recombinant protein, residues 1-513, label: 5'-32P
# [4] = system: INTS3FL + hNABP1 (hSSB2); settings: EMSA: 20 mM HEPES pH 7.3, 100 mM KCl, 1 mM MgCl2, 1 mg/ml BSA, 1 mM DTT, 6% glycerol, 0.5 nM 32P substrate, 30 min on ice, 5% native PAGE, 1x TBE, 4°C, recombinant protein, protein details: GST cleaved (PreScission),His, label: 5'-32P
# [5] = system: INTS3FL in co-expressed complex + hNABP2 (hSSB1) + C9ORF80; settings: EMSA: 20 mM HEPES pH 7.3, 100 mM KCl, 1 mM MgCl2, 1 mg/ml BSA, 1 mM DTT, 6% glycerol, 0.5 nM 32P substrate, 30 min on ice; 5% native PAGE, 1x TBE, 4°C; recombinant protein; label: 5'-32P; single-stranded DNA
# [6] = system: INTS3FL + hNABP2 (hSSB1); settings: EMSA: 20 mM HEPES pH 7.3, 100 mM KCl, 1 mM MgCl2, 1 mg/ml BSA, 1 mM DTT, 6% glycerol, 0.5 nM 32P substrate, 30 min on ice, 5% native PAGE, 1x TBE, 4°C, recombinant protein, protein details: GST cleaved (PreScission),His, label: 5'-32P
# [7] = system: INTS3FL in co-expressed complex + hNABP1 (hSSB2) + C9ORF80; settings: EMSA: 20 mM HEPES pH 7.3, 100 mM KCl, 1 mM MgCl2, 1 mg/ml BSA, 1 mM DTT, 6% glycerol, 0.5 nM 32P substrate, 30 min on ice; 5% native PAGE, 1x TBE, 4°C; recombinant protein; label: 5'-32P
sequence,measurement,setting,value
TTTTTTTTTT [dT10],binding result,[1],no binding
same,binding result,[2],no binding
TTTTTTTTTTTTTTTTTTTT [dT20],binding result,[1],no binding
same,binding result,[2],binds
TTTTTTTTTTTTTTTTTTTTTTTTTTTTTT [dT30],binding result,[3]; single-stranded DNA,binds more weakly
same,binding result,[4]; single-stranded DNA,binds more weakly
same,binding result,[5],binds more weakly
same,binding result,[6]; single-stranded DNA,binds more weakly
TTTTTTTTTTTTTTTTTTTTTTTTTTTTTTTTTTTTTTTTTTTTTTTTTTTTTTTTTTTT [dT60],binding result,[2],binds
UUUUUUUUUUUUUUUUUUUUUUUUUUUUUU [rU30],binding result,[3],binds more weakly
same,binding result,[7],binds more weakly
same,binding result,[4],binds more weakly
same,binding result,[6],binds more weakly
same,Kd,[2],> 85 µM

# Source: publication PMC5748837
